Results taken from article PMC8898311.
Results are given in words; binding and its absence hold for the method and conditions named. In cells and extracts the contact can be indirect. Some binding calls cover weakened binding; strength is not graded here.

T1: NOP2/Sun RNA methyltransferase 5 (NSUN5) (rat (endogenous in BMSCs of Sprague Dawley rats)) (UniProt G3V660)
T1 sequence: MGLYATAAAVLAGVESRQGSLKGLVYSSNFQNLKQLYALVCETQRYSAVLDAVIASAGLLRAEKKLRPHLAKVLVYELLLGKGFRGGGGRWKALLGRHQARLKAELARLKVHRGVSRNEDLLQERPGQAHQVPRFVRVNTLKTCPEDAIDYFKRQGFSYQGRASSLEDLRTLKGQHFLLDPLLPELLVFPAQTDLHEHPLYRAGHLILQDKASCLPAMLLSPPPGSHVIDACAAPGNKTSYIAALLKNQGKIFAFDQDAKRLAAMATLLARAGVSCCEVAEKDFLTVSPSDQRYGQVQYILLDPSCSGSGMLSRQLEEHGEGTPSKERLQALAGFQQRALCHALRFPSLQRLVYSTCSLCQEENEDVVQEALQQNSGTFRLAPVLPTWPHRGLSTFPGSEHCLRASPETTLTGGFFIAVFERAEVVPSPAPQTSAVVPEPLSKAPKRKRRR

T2: tumor necrosis factor receptor-associated protein 1 (TRAP1) (rat (endogenous in BMSCs of Sprague Dawley rats)) (UniProt Q5XHZ0)
T2 sequence: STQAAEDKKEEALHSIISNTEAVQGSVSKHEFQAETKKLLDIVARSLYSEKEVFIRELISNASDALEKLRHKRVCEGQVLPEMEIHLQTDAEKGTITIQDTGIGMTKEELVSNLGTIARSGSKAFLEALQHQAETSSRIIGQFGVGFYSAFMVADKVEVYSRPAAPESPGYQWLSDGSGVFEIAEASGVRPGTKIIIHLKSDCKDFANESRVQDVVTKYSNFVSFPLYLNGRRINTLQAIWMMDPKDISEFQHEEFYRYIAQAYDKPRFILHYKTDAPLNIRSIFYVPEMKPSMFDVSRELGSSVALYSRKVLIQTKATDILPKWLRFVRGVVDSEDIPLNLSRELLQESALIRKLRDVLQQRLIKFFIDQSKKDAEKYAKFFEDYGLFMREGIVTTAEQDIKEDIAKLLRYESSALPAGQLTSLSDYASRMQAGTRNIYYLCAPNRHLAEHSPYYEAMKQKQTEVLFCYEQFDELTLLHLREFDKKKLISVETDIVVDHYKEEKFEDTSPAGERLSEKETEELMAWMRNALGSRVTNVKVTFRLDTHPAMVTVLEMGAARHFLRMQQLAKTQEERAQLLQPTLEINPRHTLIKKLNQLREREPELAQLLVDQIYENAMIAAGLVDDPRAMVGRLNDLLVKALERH

B1: tumor necrosis factor receptor-associated protein 1 (TRAP1) (protein, UniProt Q5XHZ0 61-706)
chain: T2 sequence
B2: NOP2/Sun RNA methyltransferase 5 (NSUN5) (enzyme, UniProt G3V660 1-451)
chain: T1 sequence

Key:
[1] = target: T1, NOP2/Sun RNA methyltransferase 5 (NSUN5) (rat (endogenous in BMSCs of Sprague Dawley rats)); assay: co-IP; rat BMSC lysates incubated at 4 °C for 12 h with magnetic beads cross-linked with anti-NSUN5 or anti-Trap1 antibodies (control: nonspecific mouse IgG); western blotting and silver staining
[2] = target: T2, tumor necrosis factor receptor-associated protein 1 (TRAP1) (rat (endogenous in BMSCs of Sprague Dawley rats)); assay: as above

Row | Binder | binding [1] | binding [2]
1 | B1 | binds | 
2 | B2 |  | binds
